From publication PMC2996326, “LaeA Control of Velvet Family Regulatory Proteins for Light-Dependent Development and Fungal Cell-Type Specificity” (PLoS Genetics, 2010)
Results are given in words; binding and its absence hold for the method and conditions named. In cells and extracts the contact can be indirect. Here binding means that the protein was enriched with, or labelled near, the bait; the list need not be complete. For part of these data: A no says only that the protein was not detected with the bait. Each block holds one molecule with its values, some of them ahead of it.

The chains behind the UniProt entries cited, without tags or fusion partners. Where a name states a change or a piece, a line headed by the entry shows the natural chain unless it says otherwise.
UniProt C8VTS4: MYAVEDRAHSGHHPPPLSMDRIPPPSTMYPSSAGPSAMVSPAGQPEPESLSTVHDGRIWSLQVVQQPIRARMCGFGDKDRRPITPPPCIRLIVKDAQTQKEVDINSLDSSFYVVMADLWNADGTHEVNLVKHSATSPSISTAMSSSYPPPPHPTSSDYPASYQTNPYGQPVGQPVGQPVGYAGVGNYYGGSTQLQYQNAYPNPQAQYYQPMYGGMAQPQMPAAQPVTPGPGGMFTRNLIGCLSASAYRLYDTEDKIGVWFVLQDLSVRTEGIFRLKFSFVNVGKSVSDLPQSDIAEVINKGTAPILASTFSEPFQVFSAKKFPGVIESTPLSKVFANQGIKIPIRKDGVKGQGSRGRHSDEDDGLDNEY
UniProt C8VQG9: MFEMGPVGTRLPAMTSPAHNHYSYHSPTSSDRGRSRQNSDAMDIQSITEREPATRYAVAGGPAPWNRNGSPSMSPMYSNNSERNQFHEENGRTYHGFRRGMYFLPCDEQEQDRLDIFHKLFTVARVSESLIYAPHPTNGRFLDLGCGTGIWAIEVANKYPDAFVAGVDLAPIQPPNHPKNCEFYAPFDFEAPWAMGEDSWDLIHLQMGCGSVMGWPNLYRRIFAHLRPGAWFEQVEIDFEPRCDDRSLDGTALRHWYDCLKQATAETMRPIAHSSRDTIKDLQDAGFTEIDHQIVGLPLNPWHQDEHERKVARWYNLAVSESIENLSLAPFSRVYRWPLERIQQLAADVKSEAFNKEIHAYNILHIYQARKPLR
UniProt G5EB89: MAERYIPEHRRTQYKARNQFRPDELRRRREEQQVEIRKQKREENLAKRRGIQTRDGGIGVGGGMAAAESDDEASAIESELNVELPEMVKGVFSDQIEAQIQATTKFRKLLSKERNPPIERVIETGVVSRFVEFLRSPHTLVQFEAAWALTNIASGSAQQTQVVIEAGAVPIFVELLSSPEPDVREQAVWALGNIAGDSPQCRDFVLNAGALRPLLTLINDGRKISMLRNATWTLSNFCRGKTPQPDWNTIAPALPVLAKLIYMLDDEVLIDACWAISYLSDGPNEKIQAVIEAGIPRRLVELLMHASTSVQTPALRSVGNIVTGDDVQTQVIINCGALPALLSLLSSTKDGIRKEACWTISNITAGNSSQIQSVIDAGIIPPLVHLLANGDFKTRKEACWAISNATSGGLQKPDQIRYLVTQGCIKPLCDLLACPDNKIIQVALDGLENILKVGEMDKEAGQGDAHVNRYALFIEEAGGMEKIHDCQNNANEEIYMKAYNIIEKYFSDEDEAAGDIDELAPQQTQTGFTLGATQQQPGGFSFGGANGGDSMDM

Assays:
Test in all cases: affinity purification with mass spectrometry; tandem affinity purification (TAP) of the cTAP-tagged bait from A. nidulans protein crude extracts, cultures 12 h after induction on solid medium in the light or in the dark; wild type and laeAΔ strains; bands identified by LC-MS/MS
[1] = target: VelB::cTAP (Aspergillus nidulans) (UniProt C8VTS4)
[2] = target: T1, VeA::cTAP (Aspergillus nidulans) (UniProt C8VTV4)
T1 sequence: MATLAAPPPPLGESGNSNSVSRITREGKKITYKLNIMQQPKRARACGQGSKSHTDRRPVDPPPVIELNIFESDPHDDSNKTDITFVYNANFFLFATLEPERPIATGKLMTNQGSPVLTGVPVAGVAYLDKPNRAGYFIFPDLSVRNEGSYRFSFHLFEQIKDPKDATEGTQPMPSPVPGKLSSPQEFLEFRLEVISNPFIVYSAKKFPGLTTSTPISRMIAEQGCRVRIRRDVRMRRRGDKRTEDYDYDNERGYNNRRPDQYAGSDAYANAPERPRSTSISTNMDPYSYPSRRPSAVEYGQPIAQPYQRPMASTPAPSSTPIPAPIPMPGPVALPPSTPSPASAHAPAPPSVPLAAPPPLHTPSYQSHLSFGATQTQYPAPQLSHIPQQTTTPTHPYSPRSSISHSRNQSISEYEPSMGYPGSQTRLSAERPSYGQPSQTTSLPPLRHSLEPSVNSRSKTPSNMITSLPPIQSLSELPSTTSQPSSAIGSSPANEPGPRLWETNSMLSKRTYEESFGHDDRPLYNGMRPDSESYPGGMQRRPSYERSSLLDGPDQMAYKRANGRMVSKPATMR

[3] = target: T2, VosA::cTAP (Aspergillus nidulans) (UniProt Q5BBX1)
T2 sequence: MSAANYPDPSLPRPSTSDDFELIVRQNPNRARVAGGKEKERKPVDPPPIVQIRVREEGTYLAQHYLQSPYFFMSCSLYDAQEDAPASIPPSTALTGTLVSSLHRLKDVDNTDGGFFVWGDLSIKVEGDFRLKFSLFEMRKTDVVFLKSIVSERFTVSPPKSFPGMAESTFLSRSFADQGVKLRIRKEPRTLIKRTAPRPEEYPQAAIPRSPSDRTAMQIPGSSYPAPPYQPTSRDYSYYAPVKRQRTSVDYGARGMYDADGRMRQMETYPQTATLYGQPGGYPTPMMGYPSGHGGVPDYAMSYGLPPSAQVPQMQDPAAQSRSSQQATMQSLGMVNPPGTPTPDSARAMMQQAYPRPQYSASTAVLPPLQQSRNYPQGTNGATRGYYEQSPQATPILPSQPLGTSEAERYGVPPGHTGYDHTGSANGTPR

Molecule: LaeA (from UniProt C8VQG9 1-374)
- binding [3]: no binding

Molecule: VelB (velvet-like B) (from UniProt C8VTS4 1-369)
- binding [2]: binds

Continued, values first:

- binding [1]: binds
- binding [2]: binds
- binding [3]: no binding
Molecule: α-importin KapA (from UniProt G5EB89)

- binding [1]: binds
B1: VeA (velvet A) (protein, UniProt C8VTV4 1-573)
chain: T1 sequence
